Results: patent publication US20210032364A1
No constants are given. Whether binding was seen depends on the method and setting. Some binding calls cover weakened binding; strength is not graded here.

Amino acid sequences for entries named in this document (tags omitted). A change or cut given only in a name is not applied to a line headed by its entry.
UniProt P23804: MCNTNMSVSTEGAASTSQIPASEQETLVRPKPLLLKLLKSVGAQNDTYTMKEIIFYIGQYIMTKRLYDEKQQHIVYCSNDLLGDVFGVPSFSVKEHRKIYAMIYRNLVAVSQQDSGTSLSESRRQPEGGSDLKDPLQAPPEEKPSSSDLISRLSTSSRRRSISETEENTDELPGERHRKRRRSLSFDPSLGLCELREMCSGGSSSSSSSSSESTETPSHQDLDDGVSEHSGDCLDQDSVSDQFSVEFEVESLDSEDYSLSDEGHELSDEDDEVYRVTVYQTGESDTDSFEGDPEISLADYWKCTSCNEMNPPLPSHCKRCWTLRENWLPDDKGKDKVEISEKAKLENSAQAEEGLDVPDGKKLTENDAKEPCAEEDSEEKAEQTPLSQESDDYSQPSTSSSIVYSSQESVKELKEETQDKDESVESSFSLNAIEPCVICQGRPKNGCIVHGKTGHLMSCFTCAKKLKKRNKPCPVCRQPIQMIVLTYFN
UniProt Q00987: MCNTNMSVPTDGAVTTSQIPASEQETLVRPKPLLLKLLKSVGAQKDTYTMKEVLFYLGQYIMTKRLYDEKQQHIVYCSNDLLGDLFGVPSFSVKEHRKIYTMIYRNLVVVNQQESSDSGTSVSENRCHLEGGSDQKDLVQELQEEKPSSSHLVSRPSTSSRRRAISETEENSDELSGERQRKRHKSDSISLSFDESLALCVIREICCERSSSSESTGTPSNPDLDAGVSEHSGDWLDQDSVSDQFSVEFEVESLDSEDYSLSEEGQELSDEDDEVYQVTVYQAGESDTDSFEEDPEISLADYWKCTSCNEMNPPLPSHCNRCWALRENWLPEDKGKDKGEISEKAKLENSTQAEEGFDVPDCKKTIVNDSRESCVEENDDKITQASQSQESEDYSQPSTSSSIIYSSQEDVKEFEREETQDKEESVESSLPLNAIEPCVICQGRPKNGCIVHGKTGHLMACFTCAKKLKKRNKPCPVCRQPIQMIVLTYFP

What was measured:
[1] = target: MDM2 on the plasma membrane of intact mouse cancer cells (mouse) (UniProt P23804); test: cell-ELISA on intact murine cancer cells
[2] = target: MDM2 on the plasma membrane of intact mouse cancer cells (mouse) (UniProt P23804); test: cell-ELISA, 1 µg/mL, on intact MC-38, LL/2 and Panc02 cells (FIG. 5)
[3] = target: HDM2 on the plasma membrane of intact human cancer cells (human) (UniProt Q00987); test: cell-ELISA on intact human cancer cells
[4] = target: MDM2 on the plasma membrane of intact mouse cancer cells (mouse) (UniProt P23804); test: cell-ELISA on intact rodent cancer cells
[5] = target: HDM2 on the plasma membrane of intact human cancer cells (human) (UniProt Q00987); test: cell-ELISA, 1 µg/mL, on intact MCF-7, HCC1806, MIA PaCa-2, OVCAR-3, OVCA.4, A2058 and 92.1 cells
[6] = target: HDM2 on the plasma membrane of intact human cancer cells (human) (UniProt Q00987); test: cell-ELISA on intact MIA PaCa-2 cells, peptide competition
[7] = target: MDM2 on the plasma membrane of intact mouse cancer cells (mouse) (UniProt P23804); test: cell-ELISA on intact mouse cancer cells
[8] = target: MDM2 on the plasma membrane of intact mouse cancer cells (mouse) (UniProt P23804); test: cell-ELISA, 1 µg/mL, on intact MC-38, LL/2 and Panc02 cells (FIG. 4)
[9] = target: HDM2 on the plasma membrane of intact human cancer cells (human) (UniProt Q00987); test: cell-ELISA on intact EDTA-released MIAPaCa-2 cells
[10] = target: HDM2 on the plasma membrane of intact human cancer cells (human) (UniProt Q00987); test: cell-ELISA on intact MIA PaCa-2 cells
[11] = target: HDM2 on the plasma membrane of intact human cancer cells (human) (UniProt Q00987); test: cell-ELISA, 1 µg/mL, on intact MCF-7, HCC1806, MIA PaCa-2, OVCAR-3, OVCA4, A2058 and 92.1 cells
[12] = target: HDM2 on the plasma membrane of intact human cancer cells (human) (UniProt Q00987); test: cell-ELISA on intact MIA PaCa-2 cells, competition with recombinant HDM2
[13] = target: MDM2 on the plasma membrane of intact mouse cancer cells (mouse) (UniProt P23804); test: cell-ELISA, 1 µg/mL, on intact MC-38, LL/2 and Panc02 cells (FIG. 3)

Measured: binding

B1: monoclonal antibody NMC-303 (antibody, V domains shown)
VH: QVQLQQPGAELVKPGASVKLSCKASGYTFTSYYMYWVKQRPGQGLEWIGGINPRNGGTNFNEKFKNKATLTADKSSTTAYMQLSSLTSEDSAVYYCTRSGYYAMDYWGQGTSVTVSS
VL: DIQMTQTTSSLSASLGDRVTISCRASQDISNFLNWYQQKPDGTVKLLIYYTSRLHSGVPSRFSGSGSGTDYSLTISNLEQEDIATYFCQQGNTLPRTFGGGTKLEIK
binds: [1] | [2] | [3] | [4] | [5] | [6] | [7]

B2: monoclonal antibody NMC-204 (antibody, IgG3, V domains shown)
VH: EVQLQESGSVLVRPGASVKLSCKASGDTLSGSWMHWAMQRPGQGLEWIGEIHLNRGTTNYNEKFKGKATVTVDTSSSTAYVDLSSLTSEDSAVYYCARSPGFAYWGQGTLVTVSA
VL: GIVMTQAAPSVPVTPGESVSISCRSSKSLLHSNGNSYLYWFLQRPGQSPQLLIYRMSNLASGVPDRFSGSGSGTAFTLRITRVEAEDVGVYYCMQHLEYPFTFGSGTKLEIK
binds: [1] | [8] | [3] | [9] | [4] | [10] | [5] | [6] | [7]

B3: monoclonal antibody NMC-103 (antibody, IgG1, V domains shown)
VH: EVQLQESGGGLVQPGGSLRLSCTTSGFTFTHYYMSWVRQPPGKALEWLGFIRNKAKGYTAEYSASVKGRFTISRDNSQSILYLQMNTLRPEDSATYYCARDIGDNWGQGTLVTVSS
VL: DIVMTQAAFSNPVTLGTSASISCRSSKNLLHSNGITYLYWYLQRPGQSPQLLISRVSNLASGVPNRFSGSESGTDFTLRISRVEAEDVGVYFCAQLLELPYTFGGGTKLEIK
binds: [1] | [11] | [3] | [9] | [4] | [6] | [12] | [7] | [13]
